These results are taken from patent publication US20220373555A1, “Methods to detect or quantify a gadolinium-based contrast agent in a sample using a luminescent agent able to chelate a Gd3+ cation” (THE REGENTS OF THE UNIVERSITY OF CALIFORNIA, priority 2021, published 2022).

Some entries repeat one wording, which the source may state once for all of them.

The nature of data set [1]: Selectivity of the Eu3+-3,4,3-LI(1,2-HOPO) probe: optical response to Gd3+ and interfering cations. It counts as physicochemical. Conditions: 50 μM cation; 315 nm excitation.
Data set [2] in a line: Detection of GBCA in synthetic human urine by luminescence quenching assay. The following applies: for Dynamic range / GBCA concentration at which response curve reaches saturation / Limit of detection: 50% synthetic human urine, 50 mM MES pH 6.0; for Adjusted limit of detection: corrected for the 50% urine sample dilution. As to the method:
In this assay, 3,4,3-LI(1,2-HOPO) is added to the urine sample and, in the absence of GBCAs, 1,2-HOPO groups remain available to complex other metal species. Eu^3+ is then added, and its emission is sensitized (FIG. 3). In the presence of GBCAs, however, 1,2-HOPO units acquire the Gd^3+ from the contrast agent because of their higher affinity for the metal compared to clinical ligands,^23 preventing the coordination of subsequently added Eu^3+. Thus, a drastic emission quenching is induced in presence of GBCAs.
Surine™ samples containing different amounts of GBCA are diluted down to 50% with MES solution (final concentration 50 mM, pH 6.0). 2 μL 3,4,3-LI(1,2-HOPO) (1 mM) are added to each solution, mixed for 10 s, and left to incubate at room temperature, without stirring for 10 min. 2 μL EuCl3 (1 mM) are added, mixed for 10 s and left undisturbed for 10 min before recording emission spectra from 500 to 700 nm under 315 nm excitation with a SpectraMax iD3 Multi-Mode Microplate Reader.
The limit of detection is calculated as: […]
Where ILOD is the assay response intensity at the limit of detection, Iblank is the response intensity of the blank, and σblank is the standard deviation for the blank signal.

With `[Na+]` [Na^+], the “luminescence variation when Eu^3+ and 3,4,3-LI(1,2-HOPO) are mixed with the cation” value in data set [1] is recorded as “No significant luminescence variation”.
The same measure, in the same setting: then `[K+]` [K^+], with “No significant luminescence variation”; and `[Ca+2]` [Ca^2+], with “No significant luminescence variation”.
On to `CNC[C@H](O)[C@@H](O)[C@H](O)[C@H](O)CO.CNC[C@H](O)[C@@H](O)[C@H](O)[C@H](O)CO.O=C([O-])CN(CCN(CC(=O)[O-])CC(=O)O)CCN(CC(=O)[O-])CC(=O)O.[Gd+3]` [Magnevist, gadopentetate dimeglumine], for which, in data set [2], the Dynamic range was in the range of 6.1 to 150 µM, the “GBCA concentration at which response curve reaches saturation” value is “around 150 μM”, the Limit of detection amounted to 6.1 µM and the “Adjusted limit of detection” value is 12.2 µM.
The like results for `CNC[C@H](O)[C@@H](O)[C@H](O)[C@H](O)CO.CNC[C@H](O)[C@@H](O)[C@H](O)[C@H](O)CO.O=C([O-])CN(CCN(CC(=O)[O-])CC(=O)O)CCN(CC(=O)O)C(COCc1ccccc1)C(=O)[O-].[Gd+3]` (stereo not drawn) [Multihance, gadobenate dimeglumine] were, in that order, 2.3 to 150 µM, “around 150 μM”, 2.3 µM and 4.6 µM.
Consider `CNC(=O)CN(CCN(CCN(CC(=O)[O-])CC(=O)NC)CC(=O)[O-])CC(=O)[O-].[Gd+3]` [Omnsican, gadodiamide], for which, in data set [2], the Dynamic range was 0.9 to 50 µM, the Limit of detection amounted to 0.9 µM and the “Adjusted limit of detection” value is 1.8 µM. In data set [2] (listed as Omniscan®), this compound registered a Dynamic range of 0.9 to 50 µM.
